“And” between values parts separate entries of the source, which are not always exact repeats. Equal entries are not always repeated. The list shows a part of the results. Shown are side measurements of this screen, not its main read-out; they come without a call. Most of these compounds were active or inconclusive in the main read-out, so they are no random draw. Words in brackets tell the shape of the fitted curve; partial curves, single points and poor fits give uncertain potencies.
Assay: qHTS Assay for Modulators of Lamin A Splicing
Conditions: HeLa LMNA splicing GFP/RFP minigene ratio, 48 h
Method in brief: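 Read-out is the ratio of GFP to DsRed2 object intensity, acquired by 488 nm laser-scanning cytometry on HeLa lamin A-EGFP minigene reporter cells. Compound incubation 48 hrs at 37 °C in Opti-MEM with 2% FBS; DMSO 0.5% final.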

[1] = measured here: RFP viability control channel
[2] = measured here: GFP splicing reporter channel

With `O=C(COC(=O)C1CCN(S(=O)(=O)c2ccccc2C(F)(F)F)CC1)NCc1ccc(F)cc1` as the compound, how does the AC50 [1] read?
Its AC50 is 0.01 µM [falling, full curve, poor fit].

Which AC50 [2] does the source give for `c1cn(-c2ncnc3ccc(-c4ccoc4)cc23)cn1` here?
The AC50 was 2.82 µM [falling, full curve].

And the AC50 [1]?
Its AC50 is 3.55 µM [falling, full curve].

Which AC50 [1] does the source give for `COc1cc(C2C(Oc3ccccc3C)C(=O)N2Cc2ccc(F)cc2)cc(OC)c1OC` (configuration not stated) here?
Its AC50 is 35.5 µM [rising, single point].

For `CCn1nc(C)c(NS(=O)(=O)c2ccc(C)cc2)c1C`, which AC50 [1] is on record?
The AC50 was 11.2 µM [rising, partial curve].

For `CC(NC(=O)CSc1nc2c(c(C(F)(F)F)n1)CCc1ccccc1-2)c1ccccc1` (configuration not stated), which AC50 [2] is on record?
Its AC50 is 17.8 µM [rising, single point].

And the AC50 [1]?
The AC50 was 22.4 µM [rising, partial curve].

With `OCCNC(=S)Nc1ccc(Cl)c(Cl)c1` as the compound, how does the AC50 [2] read?
The AC50 was 35.5 µM [rising, single point].

And the AC50 [1]?
Its AC50 is 22.4 µM [rising, single point].

Which results are given for `Cc1ccc(Cl)cc1NC(=O)c1cc2ccccc2cc1O`?
AC50 [2]: 1.26 µM [falling, single point]; AC50 [1]: 5.62 µM [rising, single point]

Which AC50 [1] does the source give for `Cc1c(NC(=O)c2cccs2)cccc1-c1nc2ccccc2s1` here?
Its AC50 is 0.0355 µM [rising, full curve, poor fit].

Which AC50 [2] does the source give for `O=C(NCc1ccc(N2CCCC2=O)cc1)c1ccc(F)cc1` here?
The AC50 was 2 µM [rising, partial curve, poor fit].

What about the AC50 [1] of the same compound?
The AC50 was 2.82 µM [rising, partial curve, poor fit].

Which AC50 [1] does the source give for `O=c1[nH]c(=O)n(Cc2ccco2)c2c1C(C(F)(F)F)(C(F)(F)F)N=C(c1ccco1)N2` here?
Its AC50 is 10 µM [rising, partial curve, poor fit].

Which AC50 [2] does the source give for `CCOc1ccc(NS(=O)(=O)c2ccc(NS(C)(=O)=O)cc2)cc1` here?
Its AC50 is 17.8 µM [rising, partial curve, poor fit].

And the AC50 [1]?
The AC50 was 15.8 µM [rising, single point].

For `CC1(C)O[C@H]2C[C@@H]3[C@H]4CCC5=CC(=O)CC[C@@]5(C)[C@]4(F)[C@@H](O)C[C@@]3(C)[C@@]2(C(=O)CCl)O1`, which AC50 [2] is on record?
Its AC50 is 12.6 µM [falling, single point].

And the AC50 [1]?
Its AC50 is 12.6 µM [rising, single point].

Which results are given for `CCOC(=O)c1c(-c2ccccc2)oc2ccc(O)c(CN3CCN(C)CC3)c12`?
AC50 [2]: 5.01 µM [rising, full curve, poor fit]; AC50 [1]: 12.6 µM [rising, partial curve]

What does the source list for `COc1cc(C(=O)Nc2cccc(-c3nnc(-c4ccco4)o3)c2)ccc1OC(C)=O`?
AC50 [2]: 0.0126 µM [falling, full curve, poor fit]; AC50 [1]: 0.0126 µM [falling, full curve, poor fit]

Which AC50 [2] does the source give for `CCNC(=S)Nc1ccc(OC(F)(F)F)cc1` here?
The AC50 was 2.82 µM [falling, full curve, poor fit].

Which AC50 [1] does the source give for `O=S(=O)(N/N=C/c1ccc2c(c1)OCCO2)c1ccc(Cl)cc1` here?
Its AC50 is 6.31 µM [falling, single point].

For `O=C(Nc1cccc(-c2nc3ccccc3s2)c1)c1cc(-n2cnnc2)ccc1Cl`, which AC50 [2] is on record?
Its AC50 is 12.6 µM [rising, partial curve].

What about the AC50 [1] of the same compound?
The AC50 was 14.1 µM [rising, single point].

With `COc1cc(/C=N/NC(=O)c2ccc(COc3cc(C)ccc3C(C)C)cc2)cc(OC)c1O` as the compound, how does the AC50 [1] read?
The AC50 was 35.5 µM [rising, single point].

For `COc1ccc(CCN(Cc2cc3cccc(C)c3n3nnnc23)C(=O)c2ccncc2)cc1OC`, which AC50 [1] is on record?
Its AC50 is 7.08 µM [falling, full curve, poor fit].

With `CCCCc1ccc(NC(=S)NCc2ccc(OC)cc2)cc1` as the compound, how does the AC50 [1] read?
Its AC50 is 35.5 µM [falling, partial curve, poor fit].

With `Cc1cc(C)c(S(=O)(=O)Nc2ccc(C(N)=O)cc2)c(C)c1` as the compound, how does the AC50 [1] read?
The AC50 was 7.94 µM [falling, full curve].

Which AC50 [1] does the source give for `CC(C)CC(=O)NC1(C(F)(F)F)C(=O)Nc2c1c(=O)n(C)c(=O)n2C` (configuration not stated) here?
The AC50 was 2.51 µM [rising, partial curve, poor fit].

For `Cc1nc(SCC(=O)N(C)Cc2ccco2)c2c(C)c(C)sc2n1`, which AC50 [2] is on record?
Its AC50 is 12.6 µM [rising, partial curve, poor fit].

Which AC50 [1] does the source give for `CCN(CC)c1ccc(N=Cc2ccc(N(CC)CC)cc2O)cc1` here?
The AC50 was 15.8 µM [rising, single point].

Which AC50 [2] does the source give for `Nc1cc(=O)[nH]c(=O)n1-c1cccc(F)c1` here?
Its AC50 is 0.251 µM [falling, full curve, poor fit].

With `COc1ccc(/C=C/C(=O)Nc2ccc(C34CC5CC(CC(O)(C5)C3)C4)cc2)cc1OC` as the compound, how does the AC50 [1] read?
The AC50 was 0.891 µM [rising, full curve].

What does the source list for `COc1ccc(NC(=O)c2ccc(-c3ccc([N+](=O)[O-])cc3)o2)cc1OC`?
AC50 [2]: 0.00891 µM [rising, full curve, poor fit]; AC50 [1]: 20 µM [rising, single point]

With `O=Cc1ccc(OCc2cn3ccccc3n2)cc1` as the compound, how does the AC50 [1] read?
The AC50 was 0.158 µM [rising, full curve, poor fit].

For `Cn1c(=O)c([N+](=O)[O-])c(Oc2ccccc2)c2ccccc21`, which AC50 [2] is on record?
Its AC50 is 22.4 µM [falling, single point].

With `O=c1cc(-c2ccc3c(c2)OCCO3)oc2ccc(Cl)cc12` as the compound, how does the AC50 [1] read?
Its AC50 is 10 µM [rising, partial curve, poor fit].

For `O=C(Nc1ccc(NC(=O)c2ccccn2)cc1)C(=O)Nc1ccc2c(c1)OCCO2`, which AC50 [1] is on record?
The AC50 was 0.1 µM [rising, full curve].

Which AC50 [1] does the source give for `c1coc(CNc2c3c(nc4ccccc24)CCC3)c1` here?
Its AC50 is 22.4 µM [rising, single point].

What does the source list for `Cc1ccc(OCC(=O)n2nc(C)cc2C)c(C)c1`?
AC50 [2]: 0.01 µM [falling, full curve, poor fit]; AC50 [1]: 0.00316 µM [falling, full curve, poor fit]

For `O=C(CC12CC3CC(CC(C3)C1)C2)N/N=C/c1ccc([N+](=O)[O-])o1`, which AC50 [1] is on record?
The AC50 was 22.4 µM [rising, single point].

With `COc1ccc(N2C(=O)CC(NCCNc3ccc([N+](=O)[O-])cn3)C2=O)cc1` (configuration not stated) as the compound, how does the AC50 [2] read?
Its AC50 is 1 µM [rising, partial curve].

With `Cc1c(Cl)cccc1NC(=S)N=Nc1c(O)n(CN2CCOCC2)c2ccccc12` as the compound, how does the AC50 [2] read?
The AC50 was 8.91 µM [rising, partial curve].

What about the AC50 [1] of the same compound?
Its AC50 is 11.2 µM [rising, partial curve].

With `Cc1cccc2cc(CN(CC3CCCO3)C(=O)c3ccco3)c(=O)[nH]c12` (configuration not stated) as the compound, how does the AC50 [1] read?
The AC50 was 6.31 µM [falling, single point].

Which AC50 [1] does the source give for `Cc1ccc(/C=N/NC(=O)CCCOc2ccc(Cl)cc2Cl)cc1` here?
The AC50 was 5.62 µM [rising, partial curve, poor fit].

With `CCCCn1c(N)c(NCc2ccccc2OC)c(=O)[nH]c1=O` as the compound, how does the AC50 [2] read?
Its AC50 is 3.16 µM [rising, partial curve].

What does the source list for `Cc1ccc(NC(=O)COC(=O)c2cc(-c3cccs3)nn2-c2ccccc2)cc1[N+](=O)[O-]`?
AC50 [2]: 0.0316 µM [falling, full curve, poor fit]; AC50 [1]: 0.00891 µM [falling, full curve, poor fit]

For `CCN(CC)c1ccc(C(=S)N2CCN(c3ccccc3)CC2)cc1`, which AC50 [2] is on record?
The AC50 was 35.5 µM [rising, single point].

And the AC50 [1]?
Its AC50 is 31.6 µM [rising, single point].

Which AC50 [1] does the source give for `COc1cccc2c1OC1(C)CC2NC(=O)N1c1cccc(C(=O)N2CCN(c3ccccn3)CC2)c1` (configuration not stated) here?
The AC50 was 17.8 µM [rising, single point].

For `Cc1ccc(Cl)cc1N1CCN(S(=O)(=O)c2cccc(S(=O)(=O)N3CCCC3)c2)CC1`, which AC50 [2] is on record?
Its AC50 is 20 µM [rising, single point].

And the AC50 [1]?
Its AC50 is 35.5 µM [rising, single point].

Which AC50 [2] does the source give for `Cc1cccc(-c2cc(C(=O)Nc3ccc4c(c3)OCCO4)c3ccccc3n2)c1` here?
Its AC50 is 2.82 µM [rising, partial curve].

Which AC50 [2] does the source give for `NC(=O)c1cnccn1` here?
The AC50 was 4.47 nM [falling, full curve, poor fit] and 3.55 nM [falling, full curve, poor fit].

For `Cc1cccn2cc(-c3ccc(S(=O)(=O)N4CCOCC4)cc3)nc12`, which AC50 [1] is on record?
Its AC50 is 14.1 µM [rising, partial curve].

Which AC50 [1] does the source give for `Cc1cccc(NC(=O)CN2C(=O)C3(SCC(=O)N3c3ccccc3)c3ccccc32)c1` (configuration not stated) here?
The AC50 was 12.6 µM [rising, partial curve, poor fit].

For `CCOC(=O)/C=C1\SCC(=O)N1CC(=O)Nc1cccc(F)c1`, which AC50 [1] is on record?
Its AC50 is 35.5 µM [rising, single point].

For `COC(=O)c1ccc(C2C(C(=O)Nc3ccc(C)cc3C)=C(C)Nc3ncnn32)cc1` (configuration not stated), which AC50 [1] is on record?
The AC50 was 25.1 µM [rising, single point].

For `Cc1ccc(C2CC(=O)NC(SCC(=O)OCc3ccccc3)=C2C#N)o1` (configuration not stated), which AC50 [1] is on record?
Its AC50 is 35.5 µM [rising, single point].

Which AC50 [2] does the source give for `Cc1ccc(-c2csc(NC(=O)CSc3nc(C)cc(=O)[nH]3)n2)cc1` here?
Its AC50 is 11.2 µM [rising, partial curve].

For `CC(C)(C)NC(=O)[C@@H]1C[C@H]2CCCC[C@@H]2CN1C[C@H](O)[C@H](Cc1ccccc1)NC(=O)[C@@H](CC(N)=O)NC(=O)c1ccc2ccccc2n1`, which AC50 [2] is on record?
The AC50 was 7.08 µM [falling, partial curve].

And the AC50 [1]?
The AC50 was 6.31 µM [falling, partial curve, poor fit].

For `CCOC(=O)c1sc(Nc2nc3cc4c(cc3s2)OCO4)cc1C`, which AC50 [2] is on record?
Its AC50 is 12.6 µM [rising, single point].

What about the AC50 [1] of the same compound?
Its AC50 is 12.6 µM [rising, partial curve].

With `Cn1c(=O)c2c(ncn2CC(=O)N/N=C/C(Br)=C/c2ccccc2)n(C)c1=O` as the compound, how does the AC50 [1] read?
The AC50 was 10 µM [rising, partial curve, poor fit].
